According to the supplement of paper PMC10849652:
This is one part of the list.

Chains of the proteins cited; added tags and fusions are not shown. Lines headed by an entry give the natural chain unless they say otherwise; changes in a name come on top.
UniProt P06732: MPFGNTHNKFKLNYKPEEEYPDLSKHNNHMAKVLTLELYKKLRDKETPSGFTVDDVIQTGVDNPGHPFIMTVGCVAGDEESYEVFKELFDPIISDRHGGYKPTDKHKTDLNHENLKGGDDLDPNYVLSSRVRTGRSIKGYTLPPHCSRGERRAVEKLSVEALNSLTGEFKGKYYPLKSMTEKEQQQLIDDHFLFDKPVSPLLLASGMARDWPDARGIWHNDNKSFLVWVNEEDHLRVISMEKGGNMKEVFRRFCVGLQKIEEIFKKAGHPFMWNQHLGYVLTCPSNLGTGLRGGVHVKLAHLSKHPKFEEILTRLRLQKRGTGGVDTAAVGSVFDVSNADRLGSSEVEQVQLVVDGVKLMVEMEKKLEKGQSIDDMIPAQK
UniProt Q9H8M5: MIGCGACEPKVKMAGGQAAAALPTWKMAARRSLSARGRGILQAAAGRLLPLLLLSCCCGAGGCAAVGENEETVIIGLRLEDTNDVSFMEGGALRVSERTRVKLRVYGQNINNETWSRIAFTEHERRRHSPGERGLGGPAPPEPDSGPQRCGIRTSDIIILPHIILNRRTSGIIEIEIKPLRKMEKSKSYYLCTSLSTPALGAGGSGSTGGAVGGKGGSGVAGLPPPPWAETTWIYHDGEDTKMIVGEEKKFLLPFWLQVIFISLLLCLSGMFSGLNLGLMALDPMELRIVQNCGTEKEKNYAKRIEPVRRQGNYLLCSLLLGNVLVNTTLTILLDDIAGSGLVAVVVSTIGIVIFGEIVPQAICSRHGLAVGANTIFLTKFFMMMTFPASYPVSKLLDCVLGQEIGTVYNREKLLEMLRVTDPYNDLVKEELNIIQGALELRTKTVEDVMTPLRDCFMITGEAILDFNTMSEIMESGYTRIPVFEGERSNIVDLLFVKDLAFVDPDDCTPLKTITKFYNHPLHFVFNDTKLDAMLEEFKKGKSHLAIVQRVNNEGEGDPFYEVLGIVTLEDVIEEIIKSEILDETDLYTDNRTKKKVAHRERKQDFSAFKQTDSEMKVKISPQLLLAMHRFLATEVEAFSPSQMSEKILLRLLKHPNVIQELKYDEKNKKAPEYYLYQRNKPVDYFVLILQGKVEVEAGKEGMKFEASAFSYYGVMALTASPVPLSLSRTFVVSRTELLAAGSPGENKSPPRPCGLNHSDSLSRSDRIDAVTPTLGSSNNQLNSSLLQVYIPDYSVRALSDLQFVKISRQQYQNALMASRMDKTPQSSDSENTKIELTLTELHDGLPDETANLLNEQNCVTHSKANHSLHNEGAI
UniProt Q96FZ7: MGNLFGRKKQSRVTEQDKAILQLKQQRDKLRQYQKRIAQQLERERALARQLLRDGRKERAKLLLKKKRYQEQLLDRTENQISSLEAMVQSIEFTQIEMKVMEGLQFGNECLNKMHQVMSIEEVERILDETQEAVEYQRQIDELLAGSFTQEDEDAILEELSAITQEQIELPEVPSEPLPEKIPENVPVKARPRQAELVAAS
UniProt O96005: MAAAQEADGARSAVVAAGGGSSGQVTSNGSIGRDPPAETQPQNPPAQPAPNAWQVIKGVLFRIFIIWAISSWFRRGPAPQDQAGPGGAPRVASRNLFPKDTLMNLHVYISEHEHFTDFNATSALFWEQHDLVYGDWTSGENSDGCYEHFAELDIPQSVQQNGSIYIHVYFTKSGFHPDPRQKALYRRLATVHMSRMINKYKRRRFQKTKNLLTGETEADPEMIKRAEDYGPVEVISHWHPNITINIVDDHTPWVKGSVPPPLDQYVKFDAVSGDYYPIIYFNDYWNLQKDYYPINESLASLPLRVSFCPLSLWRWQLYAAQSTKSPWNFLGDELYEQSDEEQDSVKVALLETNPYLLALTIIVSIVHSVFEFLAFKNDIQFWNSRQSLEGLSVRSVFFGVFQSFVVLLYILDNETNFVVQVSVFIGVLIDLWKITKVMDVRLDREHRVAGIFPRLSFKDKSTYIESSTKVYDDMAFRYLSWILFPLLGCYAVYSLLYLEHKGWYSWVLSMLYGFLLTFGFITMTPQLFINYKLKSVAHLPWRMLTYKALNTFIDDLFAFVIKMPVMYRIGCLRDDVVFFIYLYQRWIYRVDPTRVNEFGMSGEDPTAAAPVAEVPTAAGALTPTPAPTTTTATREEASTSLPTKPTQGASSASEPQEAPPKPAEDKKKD
UniProt Q9GZY4: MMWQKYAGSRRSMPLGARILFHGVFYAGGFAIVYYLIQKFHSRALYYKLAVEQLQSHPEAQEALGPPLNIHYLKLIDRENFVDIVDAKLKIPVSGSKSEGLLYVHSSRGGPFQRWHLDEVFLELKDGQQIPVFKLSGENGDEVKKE
UniProt Q6FI81: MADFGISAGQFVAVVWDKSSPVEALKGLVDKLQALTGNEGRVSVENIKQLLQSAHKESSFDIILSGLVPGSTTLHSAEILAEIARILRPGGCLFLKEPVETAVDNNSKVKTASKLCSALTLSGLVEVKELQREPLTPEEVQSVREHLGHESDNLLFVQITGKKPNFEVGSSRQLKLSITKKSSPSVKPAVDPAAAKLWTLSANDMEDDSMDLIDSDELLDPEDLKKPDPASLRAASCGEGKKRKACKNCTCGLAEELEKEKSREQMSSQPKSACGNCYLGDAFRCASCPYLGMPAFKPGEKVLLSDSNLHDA
UniProt O15247: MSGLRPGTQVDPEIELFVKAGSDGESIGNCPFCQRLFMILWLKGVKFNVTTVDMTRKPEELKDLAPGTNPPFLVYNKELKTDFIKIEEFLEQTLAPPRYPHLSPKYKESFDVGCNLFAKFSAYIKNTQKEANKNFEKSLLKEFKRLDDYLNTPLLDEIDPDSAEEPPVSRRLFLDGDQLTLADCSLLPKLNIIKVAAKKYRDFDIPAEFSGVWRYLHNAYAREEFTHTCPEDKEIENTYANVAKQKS
UniProt O14967: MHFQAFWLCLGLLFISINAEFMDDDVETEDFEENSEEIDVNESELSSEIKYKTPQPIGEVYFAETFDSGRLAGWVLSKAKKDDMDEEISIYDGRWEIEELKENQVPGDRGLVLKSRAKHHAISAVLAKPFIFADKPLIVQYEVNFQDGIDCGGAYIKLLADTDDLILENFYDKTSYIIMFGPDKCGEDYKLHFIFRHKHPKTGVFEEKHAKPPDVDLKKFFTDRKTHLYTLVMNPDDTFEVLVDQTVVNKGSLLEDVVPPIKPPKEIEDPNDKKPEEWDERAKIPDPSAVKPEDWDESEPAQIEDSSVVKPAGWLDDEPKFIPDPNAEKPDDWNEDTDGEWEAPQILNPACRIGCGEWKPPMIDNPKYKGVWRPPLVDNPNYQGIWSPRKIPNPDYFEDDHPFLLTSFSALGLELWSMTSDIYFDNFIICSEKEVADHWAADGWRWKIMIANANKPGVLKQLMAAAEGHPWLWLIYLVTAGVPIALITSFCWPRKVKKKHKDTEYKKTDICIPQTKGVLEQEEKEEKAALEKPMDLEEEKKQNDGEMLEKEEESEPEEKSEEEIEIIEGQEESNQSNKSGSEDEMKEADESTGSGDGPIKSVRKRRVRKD
UniProt Q8N3C7: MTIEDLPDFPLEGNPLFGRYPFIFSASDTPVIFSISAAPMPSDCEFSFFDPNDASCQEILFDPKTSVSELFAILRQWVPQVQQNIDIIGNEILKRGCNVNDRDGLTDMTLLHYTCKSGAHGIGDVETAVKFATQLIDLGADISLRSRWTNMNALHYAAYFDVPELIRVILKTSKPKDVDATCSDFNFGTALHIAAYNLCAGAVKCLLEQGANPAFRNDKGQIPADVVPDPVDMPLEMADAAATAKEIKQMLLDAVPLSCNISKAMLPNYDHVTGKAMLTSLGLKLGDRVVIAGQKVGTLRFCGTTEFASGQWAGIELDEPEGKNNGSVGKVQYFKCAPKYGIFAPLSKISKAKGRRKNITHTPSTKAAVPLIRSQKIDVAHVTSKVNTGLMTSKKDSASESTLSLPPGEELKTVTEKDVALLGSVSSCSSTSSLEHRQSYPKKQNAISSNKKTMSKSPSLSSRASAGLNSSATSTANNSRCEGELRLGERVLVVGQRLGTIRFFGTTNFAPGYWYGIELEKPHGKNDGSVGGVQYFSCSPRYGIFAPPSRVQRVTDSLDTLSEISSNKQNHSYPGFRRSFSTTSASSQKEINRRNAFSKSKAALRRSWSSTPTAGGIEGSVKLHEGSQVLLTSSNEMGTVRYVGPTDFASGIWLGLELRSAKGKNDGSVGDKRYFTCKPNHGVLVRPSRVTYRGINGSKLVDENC
UniProt Q9NRG0: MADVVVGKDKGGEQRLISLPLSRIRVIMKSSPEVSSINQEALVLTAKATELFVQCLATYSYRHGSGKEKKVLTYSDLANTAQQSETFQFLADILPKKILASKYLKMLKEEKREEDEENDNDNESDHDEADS
UniProt O76071: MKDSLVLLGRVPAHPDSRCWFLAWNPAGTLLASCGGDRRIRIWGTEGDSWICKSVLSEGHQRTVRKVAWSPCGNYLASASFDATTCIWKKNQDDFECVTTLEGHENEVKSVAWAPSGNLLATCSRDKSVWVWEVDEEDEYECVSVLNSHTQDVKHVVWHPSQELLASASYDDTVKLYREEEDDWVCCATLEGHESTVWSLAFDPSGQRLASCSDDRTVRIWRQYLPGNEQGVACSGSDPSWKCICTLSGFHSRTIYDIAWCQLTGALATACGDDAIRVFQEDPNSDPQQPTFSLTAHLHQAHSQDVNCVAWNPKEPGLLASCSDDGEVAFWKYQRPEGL
UniProt Q99828: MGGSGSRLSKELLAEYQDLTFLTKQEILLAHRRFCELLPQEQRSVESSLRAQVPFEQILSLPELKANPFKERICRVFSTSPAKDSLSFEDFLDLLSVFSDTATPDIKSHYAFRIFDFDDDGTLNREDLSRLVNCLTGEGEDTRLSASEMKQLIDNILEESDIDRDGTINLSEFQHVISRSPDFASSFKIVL
UniProt Q9C0A0: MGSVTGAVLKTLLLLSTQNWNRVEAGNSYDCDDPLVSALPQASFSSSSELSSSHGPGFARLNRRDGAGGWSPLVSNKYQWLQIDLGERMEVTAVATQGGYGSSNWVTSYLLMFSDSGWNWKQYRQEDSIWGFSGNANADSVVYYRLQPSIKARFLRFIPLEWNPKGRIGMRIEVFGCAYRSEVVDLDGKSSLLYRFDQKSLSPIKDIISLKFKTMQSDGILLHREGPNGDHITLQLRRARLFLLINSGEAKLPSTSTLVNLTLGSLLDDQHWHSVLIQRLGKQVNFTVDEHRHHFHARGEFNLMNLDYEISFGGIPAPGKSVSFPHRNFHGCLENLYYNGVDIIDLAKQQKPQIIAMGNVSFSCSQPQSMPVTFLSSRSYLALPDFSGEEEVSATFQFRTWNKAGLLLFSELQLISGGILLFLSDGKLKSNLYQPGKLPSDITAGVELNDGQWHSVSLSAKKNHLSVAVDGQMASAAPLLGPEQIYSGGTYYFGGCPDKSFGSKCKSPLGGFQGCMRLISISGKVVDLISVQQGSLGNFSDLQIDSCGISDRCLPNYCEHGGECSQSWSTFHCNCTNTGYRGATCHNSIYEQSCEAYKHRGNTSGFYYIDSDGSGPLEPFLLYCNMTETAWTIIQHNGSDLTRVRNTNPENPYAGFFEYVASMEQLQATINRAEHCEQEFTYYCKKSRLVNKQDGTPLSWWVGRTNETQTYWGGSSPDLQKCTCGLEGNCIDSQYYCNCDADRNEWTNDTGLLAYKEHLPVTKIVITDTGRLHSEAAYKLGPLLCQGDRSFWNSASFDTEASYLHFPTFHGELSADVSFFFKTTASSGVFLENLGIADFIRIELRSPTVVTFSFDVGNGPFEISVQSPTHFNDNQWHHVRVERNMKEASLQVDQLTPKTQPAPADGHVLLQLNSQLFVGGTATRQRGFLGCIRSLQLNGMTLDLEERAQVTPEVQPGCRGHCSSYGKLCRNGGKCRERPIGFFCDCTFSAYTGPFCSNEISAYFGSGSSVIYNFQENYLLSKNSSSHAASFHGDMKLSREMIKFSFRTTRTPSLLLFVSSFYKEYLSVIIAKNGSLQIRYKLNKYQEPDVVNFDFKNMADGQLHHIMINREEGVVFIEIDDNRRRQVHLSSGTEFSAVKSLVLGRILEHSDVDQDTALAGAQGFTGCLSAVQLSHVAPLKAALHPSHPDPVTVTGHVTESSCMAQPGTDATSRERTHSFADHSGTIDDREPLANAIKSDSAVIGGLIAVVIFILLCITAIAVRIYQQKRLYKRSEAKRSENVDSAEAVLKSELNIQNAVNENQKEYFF
UniProt Q96DG6: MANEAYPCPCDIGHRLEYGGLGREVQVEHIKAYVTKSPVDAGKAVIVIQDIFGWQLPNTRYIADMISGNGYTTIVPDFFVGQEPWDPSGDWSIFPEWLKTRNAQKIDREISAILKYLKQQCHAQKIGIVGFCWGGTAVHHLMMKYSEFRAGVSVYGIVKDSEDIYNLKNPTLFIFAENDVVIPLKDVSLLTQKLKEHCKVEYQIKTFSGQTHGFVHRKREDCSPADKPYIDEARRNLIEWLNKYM

How the values were obtained:
Experiment in all cases: log2 fold change, soluble protein after heating vs DMSO (PISA); higher = thermal stabilisation; K562 cells, 10 uM, 30 min; active = over 0.2 and 3.5 SD of the protein, either way, in both replicates (recomputed)
[1] = compound: CC1=C(C=C(C=C1)NC(=O)C2=CC(=CC=C2)C(C)(C)C#N)NC3=CC4=C(C=C3)N=CN(C4=O)C
How it was run: (§1)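 Quantification of soluble protein used TMTpro 16plex LC-MS/MS, with channel sums equalised. Samples were the supernatant after 21,000xg for 90 min of pooled aliquots from K562 cells (2×10^6 cells/mL) treated with 10 μM compound for 30 min, heated for 3 min over 48°C-58°C, and extracted in PBS with 0.5% NP-40 at 4°C. Values, from duplicates, describe thermal stability against control samples on a log2 fold-change scale.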

[2] = compound: CC1=C(C=C(C=C1)NC(=O)C2=CC(=CC=C2)N(C)C)NC(=O)C3=CC=C(C=C3)O
How it was run: as §1

[3] = compound: CC1=CC=C(C=C1)SC2=C3C=C(SC3=CN=C2)C(=O)N
How it was run: as §1

[4] = compound: CC1=NC(=CC=C1)C2=C(N=C(N2)C(C)(C)C)C3=CC4=NC=CN=C4C=C3
How it was run: as §1

Nexturastat A = compound: CCCCN(Cc1ccc(C(=O)NO)cc1)C(=O)Nc1ccccc1 [Nexturastat A]
How it was run: as §1

vemurafenib = compound: CCCS(=O)(=O)Nc1ccc(F)c(C(=O)c2c[nH]c3ncc(-c4ccc(Cl)cc4)cc23)c1F [vemurafenib]
How it was run: as §1

[5] = compound: CCCS(=O)(=O)Nc1ccc(F)c(C(=O)c2c[nH]c3ncc(Cl)cc23)c1F
How it was run: as §1

[6] = compound: CCCc1cc(C)[nH]c(=O)c1CNC(=O)c1cc(-c2ccnc(N3CCN(C)CC3)c2)cc2c1cnn2C(C)C
How it was run: as §1

givinostat = compound: CCN(CC)Cc1ccc2cc(COC(=O)Nc3ccc(C(=O)NO)cc3)ccc2c1 [givinostat]
How it was run: as §1

barasertib = compound: CCN(CCCOc1ccc2c(Nc3cc(CC(=O)Nc4cccc(F)c4)[nH]n3)ncnc2c1)CCOP(=O)(O)O [barasertib]
How it was run: as §1

[7] = compound: CC[C@@H]1C(=O)N(C)c2cnc(Nc3ccc(C(=O)NC4CCN(C)CC4)cc3OC)nc2N1C1CCCC1
How it was run: as §1

volasertib = compound: CC[C@@H]1C(=O)N(C)c2cnc(Nc3ccc(C(=O)N[C@H]4CC[C@H](N5CCN(CC6CC6)CC5)CC4)cc3OC)nc2N1C(C)C [volasertib]
How it was run: as §1

[8] = compound: CC[C@H](C)N1C=C(C2=C(C=C(C=C21)C3=CN=C(C=C3)N4CCNCC4)C(=O)NCC5=C(C=C(NC5=O)C)C)C
How it was run: as §1

epoxomicin = compound: CC[C@H](C)[C@@H](C(=O)N[C@@H]([C@@H](C)O)C(=O)N[C@@H](CC(C)C)C(=O)[C@]1(CO1)C)NC(=O)[C@H]([C@@H](C)CC)N(C)C(=O)C [epoxomicin]
How it was run: as §1

[9] = compound: CCn1c(C(=O)N(C2CC2)C2CC2)cc2c3c(ncn3C)c(Nc3cc(C)n(C)n3)nc21
How it was run: as §1

[10] = compound: CCn1cc(-c2ccnc3[nH]c(-c4cccc(CN(C)C)c4)cc23)c(-c2ccc(NC(=O)N(C)C)cc2)n1
How it was run: as §1

[11] = compound: CN(C)CC(=O)Nc1ccc2[nH]c(=O)c3ccccc3c2c1
How it was run: as §1

rosiglitazone = compound: CN(CCOC1=CC=C(C=C1)C[C@H]2C(=O)NC(=O)S2)C3=CC=CC=N3 (racemic) [rosiglitazone]
How it was run: as §1

[12] = compound: CN1C2=C(C3=C1C(=O)N(N=C3)CC4=CC(=CC=C4)N)SC(=C2)S(=O)C
How it was run: as §1

[13] = compound: CN1CCC(CNc2ccc3ncc(-c4cccc(OC(F)(F)F)c4)n3n2)CC1
How it was run: as §1

Measured: log2 fold change

CKM (UniProt P06732)
inactive: [1] 0.075 | [2] -0.068 | [3] -0.031 | [4] 0.132 | Nexturastat A -0.03 | vemurafenib 0.069 | [5] 0.007 | [6] -0.227 | givinostat 0.034 | barasertib -0.068 | [7] -0.004 | volasertib 0.164 | [8] -0.004 | epoxomicin 0.035 | [9] -0.029 | [10] -0.195 | [11] 0.013 | rosiglitazone 0.042 | [12] -0.049 | [13] -0.004

CNNM2 (UniProt Q9H8M5)
inactive: [1] -0.116 | [2] -0.222 | [3] -0.103 | [4] -0.122 | Nexturastat A -0.101 | vemurafenib -0.099 | [5] -0.26 | [6] 0.053 | givinostat -0.048 | barasertib 0.007 | [7] -0.058 | volasertib -0.017 | [8] 0.042 | epoxomicin 0.03 | [9] -0.005 | [10] -0.234 | [11] -0.229 | rosiglitazone -0.031 | [12] 0.058 | [13] 0.036

CHMP6 (UniProt Q96FZ7)
inactive: [1] 0.094 | [2] 0.004 | [3] -0.012 | [4] 0.002 | Nexturastat A -0.034 | vemurafenib 0.015 | [5] 0.022 | [6] 0.072 | givinostat -0.003 | barasertib -0.006 | [7] 0.022 | volasertib -0.018 | [8] 0.037 | epoxomicin 0.004 | [9] 0 | [10] -0.014 | [11] 0.015 | rosiglitazone -0.015 | [12] 0.013 | [13] 0.071

CLPTM1 (UniProt O96005)
inactive: [1] 0.011 | [2] 0.001 | [3] 0.006 | [4] -0.042 | Nexturastat A -0.041 | vemurafenib -0.021 | [5] -0.001 | [6] 0.118 | givinostat 0.018 | barasertib -0.016 | [7] 0.005 | volasertib -0.072 | [8] 0.014 | epoxomicin -0.009 | [9] 0.004 | [10] 0.018 | [11] 0.001 | rosiglitazone 0.009 | [12] 0.028 | [13] 0.044

COA1 (UniProt Q9GZY4)
inactive: [1] -0.028 | [2] 0.018 | [3] 0.008 | [4] -0.006 | Nexturastat A -0.014 | vemurafenib -0.049 | [5] 0.006 | [6] -0.032 | givinostat -0.004 | barasertib 0.016 | [7] -0.012 | volasertib 0.025 | [8] -0.013 | epoxomicin -0.021 | [9] 0.014 | [10] -0.035 | [11] -0.047 | rosiglitazone -0.005 | [12] -0.011 | [13] -0.114

CIAPIN1 (UniProt Q6FI81)
inactive: [1] 0.074 | [2] -0.026 | [3] 0.024 | [4] 0.012 | Nexturastat A -0.026 | vemurafenib 0.009 | [5] 0.032 | [6] -0.058 | givinostat -0.042 | barasertib 0.016 | [7] -0.034 | volasertib -0.1 | [8] 0.036 | epoxomicin 0.037 | [9] 0.009 | [10] -0.037 | [11] 0.004 | rosiglitazone 0.045 | [12] -0.079 | [13] -0.034

CLIC2 (UniProt O15247)
inactive: [1] 0.053 | [2] -0.07 | [3] 0.056 | [4] 0.011 | Nexturastat A -0.036 | vemurafenib 0.057 | [5] 0.116 | [6] 0.014 | givinostat 0.013 | barasertib 0.042 | [7] -0.115 | volasertib -0.224 | [8] 0.04 | epoxomicin 0.037 | [9] -0.069 | [10] 0.008 | [11] 0.069 | rosiglitazone 0.046 | [12] -0.041 | [13] -0.101

CLGN (UniProt O14967)
inactive: [1] 0.015 | [2] -0.032 | [3] 0.014 | [4] -0.037 | Nexturastat A 0.075 | vemurafenib -0.06 | [5] 0.054 | [6] 0.06 | givinostat -0.022 | barasertib -0.105 | [7] -0.001 | volasertib -0.204 | [8] 0.046 | epoxomicin 0.036 | [9] -0.003 | [10] 0.042 | [11] 0.03 | rosiglitazone 0.025 | [12] 0.2 | [13] 0.008

CNOT3 (UniProt O75175)
inactive: [1] -0.041 | [2] 0.003 | [3] -0.022 | [4] 0.04 | Nexturastat A 0.003 | vemurafenib 0.033 | [5] 0.08 | [6] 0.032 | givinostat 0.049 | barasertib 0.069 | [7] -0.15 | volasertib -0.116 | [8] 0.055 | epoxomicin 0.127 | [9] -0.02 | [10] 0.028 | [11] 0.052 | rosiglitazone 0.027 | [12] 0.005 | [13] -0.051

CLIP4 (UniProt Q8N3C7)
inactive: [1] -0.044 | [2] 0.013 | [3] -0.191 | [4] 0.059 | Nexturastat A -0.013 | vemurafenib -0.059 | [5] -0.148 | [6] -0.04 | givinostat -0.037 | barasertib 0.02 | [7] 0.044 | volasertib 0.06 | [8] -0.035 | epoxomicin 0.003 | [9] 0.023 | [10] -0.031 | [11] 0.046 | rosiglitazone 0.021 | [12] -0.037 | [13] 0.097

Taken from the listing (three entries):
CIAPIN1 (UniProt Q6FI81)
inactive: [1] 0.074 | [2] -0.026 | [3] 0.024 | [4] 0.012 | Nexturastat A -0.026 | vemurafenib 0.009 | [5] 0.032 | [6] -0.058 | givinostat -0.042 | barasertib 0.016 | [7] -0.034 | volasertib -0.1 | [8] 0.036 | epoxomicin 0.037 | [9] 0.009 | [10] -0.037 | [11] 0.004 | rosiglitazone 0.045 | [12] -0.079 | [13] -0.034

CLIC2 (UniProt O15247)
inactive: [1] 0.053 | [2] -0.07 | [3] 0.056 | [4] 0.011 | Nexturastat A -0.036 | vemurafenib 0.057 | [5] 0.116 | [6] 0.014 | givinostat 0.013 | barasertib 0.042 | [7] -0.115 | volasertib -0.224 | [8] 0.04 | epoxomicin 0.037 | [9] -0.069 | [10] 0.008 | [11] 0.069 | rosiglitazone 0.046 | [12] -0.041 | [13] -0.101

CLGN (UniProt O14967)
inactive: [1] 0.015 | [2] -0.032 | [3] 0.014 | [4] -0.037 | Nexturastat A 0.075 | vemurafenib -0.06 | [5] 0.054 | [6] 0.06 | givinostat -0.022 | barasertib -0.105 | [7] -0.001 | volasertib -0.204 | [8] 0.046 | epoxomicin 0.036 | [9] -0.003 | [10] 0.042 | [11] 0.03 | rosiglitazone 0.025 | [12] 0.2 | [13] 0.008

Carrying on:

CHRAC1 (UniProt Q9NRG0)
inactive: [1] 0.062 | [2] 0.002 | [3] 0.103 | [4] 0.122 | Nexturastat A -0.251 | vemurafenib 0.113 | [5] 0.124 | [6] -0.007 | givinostat -0.062 | barasertib 0.013 | [7] 0.015 | volasertib -0.061 | [8] -0.006 | epoxomicin -0.032 | [9] 0.003 | [10] -0.145 | [11] 0.032 | rosiglitazone 0.121 | [12] -0.103 | [13] 0.063

CKMT2 (UniProt P17540)
inactive: [1] -0.081 | [2] -0.034 | [3] -0.019 | [4] -0.016 | Nexturastat A 0 | vemurafenib -0.01 | [5] 0.001 | [6] -0.033 | givinostat -0.079 | barasertib -0.064 | [7] 0.071 | volasertib 0.096 | [8] 0.019 | epoxomicin -0.15 | [9] -0.05 | [10] -0.142 | [11] 0.05 | rosiglitazone -0.079 | [12] -0.082 | [13] 0.062

CIAO1 (UniProt O76071)
inactive: [1] 0.016 | [2] 0.007 | [3] -0.067 | [4] 0.065 | Nexturastat A -0.013 | vemurafenib -0.054 | [5] -0.165 | [6] -0.061 | givinostat -0.04 | barasertib 0.01 | [7] -0.112 | volasertib 0.149 | [8] -0.038 | epoxomicin 0.075 | [9] 0.01 | [10] -0.017 | [11] 0.061 | rosiglitazone 0.027 | [12] -0.082 | [13] -0.119

CIB1 isoform 2 (UniProt Q99828)
inactive: [1] 0.014 | [2] -0.018 | [3] 0.003 | [4] 0.034 | Nexturastat A 0.063 | vemurafenib 0.053 | [5] -0.073 | [6] 0.152 | givinostat -0.067 | barasertib -0.012 | [7] 0.041 | volasertib -0.058 | [8] -0.026 | epoxomicin 0.097 | [9] 0.049 | [10] -0.132 | [11] 0 | rosiglitazone 0.008 | [12] 0.05 | [13] -0.034

CNTNAP4 (UniProt Q9C0A0)
inactive: [1] -0.028 | [2] -0.02 | [3] -0.087 | [4] -0.103 | Nexturastat A 0.065 | vemurafenib -0.094 | [5] -0.068 | [6] 0.116 | givinostat 0.022 | barasertib -0.119 | [7] 0.199 | volasertib 0.237 | [8] 0.056 | epoxomicin -0.027 | [9] 0.074 | [10] 0.198 | [11] -0.071 | rosiglitazone -0.071 | [12] 0.285 | [13] 0.179

CMBL (UniProt Q96DG6)
inactive: [1] -0.008 | [2] -0.023 | [3] 0.017 | [4] -0.009 | Nexturastat A 0.043 | vemurafenib -0.009 | [5] -0.024 | [6] -0.009 | givinostat 0.105 | barasertib -0.018 | [7] 0.112 | volasertib 0.196 | [8] -0.036 | epoxomicin -0.029 | [9] 0.025 | [10] -0.047 | [11] 0.011 | rosiglitazone 0.004 | [12] -0.049 | [13] -0.015
